The whole screen tested about 310,000 compounds, of which about 17,000 (5.5%) were called active. Inconclusive results, whose numbers are uncertain, are shown with a selection of clear calls. Calls follow the shape of the dose curve; as a rule, active = well fitted inhibition curve with a large enough effect; inconclusive = small, poorly fitted or top-dose-only effect, or effect the other way; inactive = no such curve, though single readings can be large or run the other way. A potency beside an inconclusive call is a rough fit, not a confirmed value.
Biological target: Nuclear receptor ROR-gamma (Mus musculus) (UniProt P51450)
Assay: qHTS for inhibitors of ROR gamma transcriptional activity; also: nearly all actives have a fitted effect of over 60% in size
Details: Drosophila S2 Gal4-RORgamma UAS-luciferase reporter, 20 h; activity change, negative = inhibition: at 53.6 µM (top of the series)
Outline: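 Luminescence from a UAS-regulated Photinus luciferase reporter in stably transfected Drosophila Schneider cells is measured; decreased signal marks ROR gamma inhibition. Fusion expression is induced by 700 uM copper sulfate for 20 hr.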
% is scaled to controls: 0 for no effect and ±100 for the full control effect; potency is read from the fitted curve at half-maximal effect.

Sequences of proteins named here, by UniProt entry; tags and fusion partners are left off. A change or cut given only in a name is not applied to a line headed by its entry.
UniProt P51450: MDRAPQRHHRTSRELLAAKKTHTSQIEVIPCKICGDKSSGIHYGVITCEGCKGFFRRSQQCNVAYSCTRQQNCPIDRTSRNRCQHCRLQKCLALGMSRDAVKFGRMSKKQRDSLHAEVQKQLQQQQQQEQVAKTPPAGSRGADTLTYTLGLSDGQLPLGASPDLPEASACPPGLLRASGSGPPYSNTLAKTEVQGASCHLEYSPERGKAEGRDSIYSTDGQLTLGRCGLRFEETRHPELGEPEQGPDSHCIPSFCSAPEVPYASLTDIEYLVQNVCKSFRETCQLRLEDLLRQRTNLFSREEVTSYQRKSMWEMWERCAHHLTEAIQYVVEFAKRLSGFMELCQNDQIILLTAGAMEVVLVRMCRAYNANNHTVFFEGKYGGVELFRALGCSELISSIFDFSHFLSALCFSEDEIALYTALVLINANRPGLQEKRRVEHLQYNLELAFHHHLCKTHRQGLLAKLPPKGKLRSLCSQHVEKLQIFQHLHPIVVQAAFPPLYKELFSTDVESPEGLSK

| Compound | Potency | activity change, negative = inhibition |
| --- | --- | --- |
| Cc1ccc(S(=O)(=O)CCC(=O)NCCN2C(=O)S/C(=C/c3ccc(F)cc3)C2=O)cc1 | inconclusive: 35.5 µM [activator, single point] |  |
| COc1cc(/C=C/C(=O)OCC(=O)Nc2ccc(C)c(S(=O)(=O)N3CCCCC3)c2)ccc1O | inconclusive: 3.98 µM [activator, single point] |  |
| CCc1nnc(NC(=O)CSc2nnc(-c3ccccc3NC(=O)c3ccccc3)o2)s1 | active: 2.24 µM |  |
| COc1ccc(NC(=O)NC2CCCCCCC2)c(OC)c1 | inconclusive: 7.94 µM [activator, partial curve, poor fit] |  |
| CCN(CC)c1ccc(-c2nnc(SCC(=O)Nc3ccccc3C#N)n2-c2ccccc2)cc1 | active: 17.8 µM |  |
| COc1ccc(/C(N)=N/OC(=O)c2ccco2)cc1 | active: 7.94 µM |  |
| Cc1ccc(C)c(N2CCN(CC(=O)Nc3ccc4[nH]c(=O)[nH]c4c3)CC2)c1 | inconclusive: 1.58 µM [activator, single point] |  |
| O=C(CSc1nnc(NC(=O)c2c(F)cccc2F)s1)NC1CC1 | inconclusive: 22.4 µM [inhibitor, single point] |  |
| O=C1CCCC(O)=C1N=Nc1cccc(S(=O)(=O)N2CCOCC2)c1 | inconclusive: 14.1 µM [activator, single point] |  |
| COC(=O)CSc1nnc(SCc2ccc(OC)cc2)s1 | inconclusive: 10 µM [inhibitor, partial curve, poor fit] |  |
| O=C(N/N=C/c1ccccc1)c1c(O)c2ccccc2[nH]c1=O | inconclusive: 11.2 µM [activator, partial curve, poor fit] |  |
| N#Cc1c(SCC(=O)Nc2nc3ccc(Br)cc3s2)sc2c(O)cc(=O)[nH]c12 |  | inactive: -2.37% |
| Cc1noc(NC(=O)c2c(-c3c(Cl)cccc3Cl)noc2C)c1[N+](=O)[O-] | inconclusive: 22.4 µM [activator, single point] |  |
| CCN(CC)C(=O)c1ccc(-c2cccs2)s1 |  | inactive: 39% |
| CN1CCC(N(C)C(=S)NC(=O)C23CC4CC(CC(C4)C2)C3)CC1 | inconclusive: 11.2 µM [inhibitor, partial curve] |  |
| COc1ccc(S(=O)(=O)N2CCCC2C(=O)NCc2cccs2)cc1 (centres undefined) | inconclusive: 20 µM [activator, partial curve] |  |
| O=C(COc1cccc(C(F)(F)F)c1)N1CCN(c2ccccc2O)CC1 | inconclusive: 17.8 µM [activator, partial curve] |  |
| CCCCN=Cc1c(C)[nH]n(-c2ccccc2)c1=S | active: 0.631 µM |  |
| CCOC(=O)N1CCC(Nc2ncnc3c2cnn3-c2ccccc2)CC1 | inconclusive: 1.78 µM [activator, full curve, poor fit] |  |

2 of the compounds above, bar-delimited.
Compound | Potency | activity change, negative = inhibition
CN1CCC(N(C)C(=S)NC(=O)C23CC4CC(CC(C4)C2)C3)CC1 | inconclusive: 11.2 µM [inhibitor, partial curve] | 
COc1ccc(S(=O)(=O)N2CCCC2C(=O)NCc2cccs2)cc1 (centres undefined) | inconclusive: 20 µM [activator, partial curve] | 

Reference: PubChem BioAssay AID2551 (National Center for Advancing Translational Sciences (NCATS), 2010)
